The results in this text go back to publication doi:10.1101/2025.03.29.646082.

Sequences of proteins named here, by UniProt entry; tags and fusion partners are left off. Residues count along the entry.
UniProt P02647, 25-267: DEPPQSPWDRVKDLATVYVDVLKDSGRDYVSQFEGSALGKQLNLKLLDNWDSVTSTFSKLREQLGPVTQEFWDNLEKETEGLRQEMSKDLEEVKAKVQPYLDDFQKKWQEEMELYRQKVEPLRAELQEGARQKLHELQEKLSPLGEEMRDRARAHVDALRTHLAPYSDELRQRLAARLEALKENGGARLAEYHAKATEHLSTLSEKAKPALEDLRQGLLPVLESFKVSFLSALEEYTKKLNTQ

No signal at the amounts used counts as a negative. At least one verdict rests on a figure or table, not on a statement of the authors.

For the data set, the target named is ApoA1 in HDL particles (UniProt P02647). The data set is described as follows: pull-down on aptamer mesh. The note with it: (V)LDL + HDL mixture, uncaptured HDL passed through; 3'-C6-NH2.

In the case of “ACCTCGATTTTATATTATTTCGCTTACCAACAACTGCAGA [ApoB-100 aptamer]”, the binding result is reported as “no binding”.
